Reference: PubChem BioAssay AID651660 (Broad Institute, 2012)
The whole screen tested about 1,900 compounds, of which about 15 (0.8%) were called active.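 The calls were made as follows: active = every replicate shows at least 50% inhibition; inconclusive = mean inhibition at least 50% but some replicate below; inactive = the rest.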 The list shows a part of the results.

By UniProt entry, the sequences of proteins in these tests, tags left out. Where a name states a change or a piece, a line headed by the entry shows the natural chain unless it says otherwise.
UniProt P43351: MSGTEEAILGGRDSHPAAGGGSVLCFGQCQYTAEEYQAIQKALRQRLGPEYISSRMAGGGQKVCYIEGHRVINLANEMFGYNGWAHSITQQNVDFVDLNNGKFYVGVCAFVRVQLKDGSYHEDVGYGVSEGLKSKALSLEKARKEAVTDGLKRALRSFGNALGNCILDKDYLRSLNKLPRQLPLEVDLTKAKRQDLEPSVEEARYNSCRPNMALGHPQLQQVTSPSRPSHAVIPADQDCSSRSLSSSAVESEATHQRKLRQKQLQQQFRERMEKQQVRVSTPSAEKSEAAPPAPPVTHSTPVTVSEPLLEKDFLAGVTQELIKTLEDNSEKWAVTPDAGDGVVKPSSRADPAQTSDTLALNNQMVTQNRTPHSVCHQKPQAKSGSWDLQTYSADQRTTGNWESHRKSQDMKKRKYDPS

Target: DNA repair protein RAD52 homolog (Homo sapiens) (UniProt P43351)
Assay: inhibition of RAD52-mediated strand annealing – biochemical, FRET, single point, primary screen (AID 651660);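 also: 0% = median of neutral control wells and 100% = median of positive control wells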
Conditions: Recombinant RAD52 ssDNA annealing, FRET fluorescence, 30 min; at 18.7 µM; hits give high values

Row | SMILES | inhibition
1 | COc1ccc(CN2CC3CC(C2)c2cccc(=O)n2C3)cc1OC (stereo unspecified) | inactive: -36.3%
2 | COc1ccc(OC)c(C(O)C(C)N)c1 (stereo unspecified) | inactive: -0.425%
3 | Cn1c(O)c(C=NCCc2c[nH]c3ccccc23)c(=O)n(C)c1=O | inactive: 0.501%
4 | COc1ccc(NC2=NCC(C)S2)cc1 (stereo unspecified) | inactive: 1.6%
5 | c1ccc2c3c([nH]c2c1)CNCC3 | inactive: -8.2%
6 | CC(=O)[C@H]1CC[C@H]2[C@@H]3CC[C@H]4C[C@H](O)CC[C@]4(C)[C@H]3C(=O)C[C@]12C | inactive: -3.97%
7 | CC(C)CCC1(CN2CCCC2=O)C(=O)NC(=O)NC1=O | inactive: -4.57%
8 | CCOc1ccc(N2C(=O)NC(=O)/C(=C\c3cc(OC)c(OC)cc3[N+](=O)[O-])C2=O)cc1 | inactive: -29.5%
9 | C[C@]12CC[C@@H]3c4ccc(O)c(O)c4CC[C@H]3[C@@H]1CC[C@@H]2O | inactive: 1.02%
10 | CCN(CC)CCOC(=O)C(O)(c1ccccc1)c1ccccc1 | inactive: -2.73%
11 | Cc1ccc2c(c1)C1CN(C)CCC1N2C(=O)Nc1cccc(Cl)c1 (stereo unspecified) | inactive: -5.83%
12 | CCCC(=O)OCC[N+](C)(C)C | inactive: -0.115%
13 | CC(=O)c1ccc(-c2ccccc2)cc1 | inactive: 6.59%
14 | C[C@]12CCC(=O)C(O)=C1CC[C@@H]1[C@@H]2CC[C@]2(C)C(=O)CC[C@@H]12 | inactive: -0.887%
15 | COc1ccccc1CN1CCCCC1c1cccnc1 (stereo unspecified) | inactive: -1.64%
16 | CC12CN3CC(C)(CN(C1)C3c1cccs1)C2=O (stereo unspecified) | inactive: -2.15%
17 | Nc1ccc([As](=O)(O)O)cc1 | inactive: 7.08%
18 | c1ccc2c(c1)[nH]c1cnccc12 | inactive: -1.28%
19 | O=Cc1cn(Cc2ccc(F)cc2)c2ccccc12 | inactive: 7.25%
20 | CC(C)C(=O)Nc1ccc(S(=O)(=O)N2CC3CC(C2)c2cccc(=O)n2C3)cc1 (stereo unspecified) | inactive: -1.51%
21 | CN[C@H](C)[C@H](O)c1ccccc1 | inactive: -7.94%
22 | Cc1cc(Cl)ccc1OC(C)C(=O)O (stereo unspecified) | inactive: -13.2%
23 | CC(=O)Nc1cc([As](=O)(O)O)ccc1O | inactive: 3.96%
24 | O=c1[nH]c2ccccc2n1C1CCN(CCCC(c2ccc(F)cc2)c2ccc(F)cc2)CC1 | inactive: 21.9%
25 | C[C@]12CCC(=O)C=C1CCC1C2CC[C@@]2(C)C1CC[C@@]2(O)CC#N (stereo partly specified) | inactive: -5.13%
26 | CC12CN3CC(C)(CN(C1)C3c1cccnc1)C2=O (stereo unspecified) | inactive: -5.86%

A few values from the entries so far.
Under inhibition, CC(=O)c1ccc(-c2ccccc2)cc1 is listed with inactive: 6.59%
Under inhibition, CC(=O)[C@H]1CC[C@H]2[C@@H]3CC[C@H]4C[C@H](O)CC[C@]4(C)[C@H]3C(=O)C[C@]12C is listed with inactive: -3.97%
